This passage reports binding results from paper PMC6381632.

Chains of the proteins cited; added tags and fusions are not shown. Residues count along the entry.
UniProt P08779: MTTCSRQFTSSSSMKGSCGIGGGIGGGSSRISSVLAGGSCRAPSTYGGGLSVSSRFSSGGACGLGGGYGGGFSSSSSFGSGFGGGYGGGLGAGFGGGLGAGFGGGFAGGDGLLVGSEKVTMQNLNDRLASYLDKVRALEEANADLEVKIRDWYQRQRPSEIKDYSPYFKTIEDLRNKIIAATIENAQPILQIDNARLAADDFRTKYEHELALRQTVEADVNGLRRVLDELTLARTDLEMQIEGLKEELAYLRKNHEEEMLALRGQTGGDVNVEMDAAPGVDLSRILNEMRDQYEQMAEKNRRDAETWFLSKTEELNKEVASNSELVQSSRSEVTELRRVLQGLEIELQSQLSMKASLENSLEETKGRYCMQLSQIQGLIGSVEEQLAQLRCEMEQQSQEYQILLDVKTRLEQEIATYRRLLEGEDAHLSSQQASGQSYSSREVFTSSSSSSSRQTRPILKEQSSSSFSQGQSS
UniProt P18084, residues 24-799: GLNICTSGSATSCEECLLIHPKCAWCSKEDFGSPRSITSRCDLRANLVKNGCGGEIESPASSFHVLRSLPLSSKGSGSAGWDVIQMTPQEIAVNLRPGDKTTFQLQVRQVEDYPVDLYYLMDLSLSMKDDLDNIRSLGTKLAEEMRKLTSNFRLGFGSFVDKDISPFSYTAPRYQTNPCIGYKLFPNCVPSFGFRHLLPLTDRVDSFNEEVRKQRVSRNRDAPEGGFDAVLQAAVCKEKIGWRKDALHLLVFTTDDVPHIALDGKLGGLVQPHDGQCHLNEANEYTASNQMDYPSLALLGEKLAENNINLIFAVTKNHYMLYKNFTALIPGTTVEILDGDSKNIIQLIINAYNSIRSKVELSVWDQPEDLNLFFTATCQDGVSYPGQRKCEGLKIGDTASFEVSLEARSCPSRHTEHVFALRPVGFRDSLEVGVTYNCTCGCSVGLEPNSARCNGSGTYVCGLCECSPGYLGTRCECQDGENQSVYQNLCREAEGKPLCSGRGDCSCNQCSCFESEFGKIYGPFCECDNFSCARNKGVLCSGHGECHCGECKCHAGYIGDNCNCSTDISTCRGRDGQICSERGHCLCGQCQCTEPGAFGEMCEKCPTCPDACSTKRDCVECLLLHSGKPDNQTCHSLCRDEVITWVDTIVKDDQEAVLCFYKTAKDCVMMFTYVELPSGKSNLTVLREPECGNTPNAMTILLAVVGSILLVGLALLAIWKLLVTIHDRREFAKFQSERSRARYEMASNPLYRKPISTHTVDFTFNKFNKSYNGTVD
UniProt P08581, residues 25-1390: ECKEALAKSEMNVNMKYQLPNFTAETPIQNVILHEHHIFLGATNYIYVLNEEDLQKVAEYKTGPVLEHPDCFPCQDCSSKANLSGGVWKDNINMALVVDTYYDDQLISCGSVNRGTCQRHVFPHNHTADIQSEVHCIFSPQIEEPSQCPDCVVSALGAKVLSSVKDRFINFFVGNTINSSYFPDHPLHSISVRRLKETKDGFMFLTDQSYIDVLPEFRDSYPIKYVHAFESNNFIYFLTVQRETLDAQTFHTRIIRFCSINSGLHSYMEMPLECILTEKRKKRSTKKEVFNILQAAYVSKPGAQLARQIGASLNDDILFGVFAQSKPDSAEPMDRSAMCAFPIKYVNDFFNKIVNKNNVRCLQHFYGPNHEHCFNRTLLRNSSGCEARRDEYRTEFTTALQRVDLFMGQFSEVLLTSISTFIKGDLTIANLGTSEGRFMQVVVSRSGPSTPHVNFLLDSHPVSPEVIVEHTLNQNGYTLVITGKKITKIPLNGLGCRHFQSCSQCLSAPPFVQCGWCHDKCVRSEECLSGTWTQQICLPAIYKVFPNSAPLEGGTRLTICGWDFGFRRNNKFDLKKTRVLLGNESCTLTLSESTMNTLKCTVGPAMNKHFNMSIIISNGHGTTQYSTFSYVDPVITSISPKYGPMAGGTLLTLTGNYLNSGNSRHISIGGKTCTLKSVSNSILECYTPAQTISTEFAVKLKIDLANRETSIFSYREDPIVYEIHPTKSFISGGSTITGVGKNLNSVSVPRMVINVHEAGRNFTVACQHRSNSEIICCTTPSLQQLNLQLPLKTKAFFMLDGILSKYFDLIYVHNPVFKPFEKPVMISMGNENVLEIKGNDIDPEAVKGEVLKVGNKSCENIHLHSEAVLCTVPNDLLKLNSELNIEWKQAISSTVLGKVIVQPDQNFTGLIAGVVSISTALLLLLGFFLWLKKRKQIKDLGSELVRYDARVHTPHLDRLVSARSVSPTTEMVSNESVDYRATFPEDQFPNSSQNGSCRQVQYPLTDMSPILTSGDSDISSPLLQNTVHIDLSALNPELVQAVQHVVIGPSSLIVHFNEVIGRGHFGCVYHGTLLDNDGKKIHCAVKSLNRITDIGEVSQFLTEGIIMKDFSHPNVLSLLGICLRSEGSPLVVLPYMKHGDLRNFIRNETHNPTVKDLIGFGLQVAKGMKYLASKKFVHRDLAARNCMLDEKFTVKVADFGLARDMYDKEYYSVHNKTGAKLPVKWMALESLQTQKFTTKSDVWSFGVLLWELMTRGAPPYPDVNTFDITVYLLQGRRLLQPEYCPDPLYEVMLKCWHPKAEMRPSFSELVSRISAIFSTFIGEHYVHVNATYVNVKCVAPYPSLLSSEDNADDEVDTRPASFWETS

Results are given in words; binding and its absence hold for the method and conditions named. Binding seen in cells or lysates may run through a third protein. Some entries that bind do so weakly or less than the wild type.

Experiment [1] addresses keratin 16 (human (endogenous in human OSCC lines)) (UniProt P08779). Kind of experiment: co-IP; endogenous proteins in lysates of three OSCC lines (RIPA buffer: 150 mM NaCl, 1% Nonidet P-40, 0.5% deoxycholic acid, 0.1% SDS, 50 mM Tris-HCl pH 8.0); reciprocal IP with the indicated antibodies and blotting; IgG as negative control.
Experiment [2] addresses β5-integrin (human (endogenous in human OSCC lines)) (UniProt P18084). The experiment is described as above.

Turning to “c-Met (from UniProt P08581 25-1390) (receptor)”, the binding entry in experiment [1] and in experiment [2] was “binds” in each case.
